Measurements reported in PubChem BioAssay AID720505 (Drosophila RNAi Screening Center, 2013)
Test: 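Genes needed for store-operated calcium entry in fly cells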 (primary screen). System: Drosophila S2R+ cells. Knock-down reagent: long dsRNA against Drosophila genes. Conditions: thapsigargin (2 µM) in calcium-free buffer to empty internal stores, then 2 mM calcium added back. Detection: 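Stores emptied by 2 µM thapsigargin without calcium, then 2 mM calcium re-added; fluo-4 fluorescence followed by FLIPR in 384-well plates, per-well averaged endpoint, raw; two screen passes, some wells retested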. Direction: calcium signal and retest calcium signal: higher = more calcium entry after store depletion. Hit rule: 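About 1500 genes called as lowering calcium entry, by varying amounts, judged against per-plate control wells with STIM1 as positive and Rho1 as negative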. Calls: active = called as lowering calcium entry; inactive = not called.
In all, the deposit lists about 20,000 reagents; below is an unselected part of those with a known target gene and a result. In the full data, about 2,100 (10%) were called active. 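Raw plate signals without normalisation; calls rest on control-based scores that were not deposited; replicate 2 separates called from uncalled poorly.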 The numbers tell different reagents against one gene apart. The record does not give: the amount of reagent, the time to read-out.

| gene | reagent | calcium signal, replicate 1 | calcium signal, replicate 2 | retest calcium signal, replicate 1 | retest calcium signal, replicate 2 | call |
| --- | --- | --- | --- | --- | --- | --- |
| Lgr1 | 1 | 59.3 | 83.1 | – | – | active |
| viaf | 1 | 156 | 97.5 | – | – | inactive |
| CG17801 | 1 | 123 | 111 | – | – | inactive |
| lbm | 1 | 103 | 88.1 | – | – | inactive |
| CG15098 | 1 | 105 | 76.5 | – | – | inactive |
| CG13426 | 1 | 148 | 154 | – | – | inactive |
| B-H1 | 1 | 80.7 | 139 | 6059 | 115 | inactive |
| B-H1 | 2 | 80.2 | 239 | – | – | inactive |
| GalT1 | 1 | 70.3 | 202 | – | – | inactive |
| bgm | 1 | 96.7 | 107 | – | – | inactive |
| awd | 1 | 76.9 | 109 | – | – | inactive |
| Paf-AHalpha | 1 | 97 | 124 | – | – | inactive |
| ste24b | 1 | 89.3 | 144 | – | – | inactive |
| CG15203 | 1 | 121 | 96.8 | – | – | inactive |
| comm | 1 | 101 | 144 | – | – | inactive |
| CG31496 | 1 | 101 | 171 | – | – | inactive |
| CG43386 | 1 | 135 | 88.3 | – | – | inactive |
| CG9962 | 1 | 188 | 139 | – | – | inactive |
| CG13313 | 1 | 89.9 | 80.3 | – | – | inactive |
| CG2186 | 1 | 125 | 55 | – | – | active |
| CG42613 | 1 | 101 | 86.7 | – | – | inactive |
| CG42613 | 2 | 126 | 149 | – | – | inactive |
| CG42613 | 3 | 98.1 | 180 | – | – | inactive |
| TfIIEbeta | 1 | 109 | 102 | – | – | inactive |
| MFS18 | 1 | 135 | 206 | – | – | inactive |
| CG13077 | 1 | 61.1 | 167 | – | – | inactive |
| Cpr12A | 1 | 102 | 85.6 | – | – | inactive |
| CG18304 | 1 | 171 | 83.7 | – | – | inactive |
| CG3502 | 1 | 149 | 86.4 | – | – | inactive |
| CG12111 | 1 | 254 | 117 | – | – | inactive |
| CG1979 | 1 | 98.8 | 117 | – | – | inactive |
| Archease | 1 | 218 | 199 | – | – | inactive |
| AdamTS-B | 1 | 120 | 92.9 | – | – | inactive |
| CG15747 | 1 | 131 | 113 | – | – | inactive |

Entries above called active:
| gene | reagent | calcium signal, replicate 1 | calcium signal, replicate 2 | retest calcium signal, replicate 1 | retest calcium signal, replicate 2 | call |
| --- | --- | --- | --- | --- | --- | --- |
| Lgr1 | 1 | 59.3 | 83.1 | – | – | active |
| CG2186 | 1 | 125 | 55 | – | – | active |
